Values from PubChem BioAssay AID1259424 (University of Nebraska Medical Center, 2018)

Purpose: 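Find knockdowns that reproduce the expression shifts seen after KSR1 loss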 (primary screen)
System: human HCT116 colon cancer cells
Knock-down reagent: siRNA pool against human genes, 50 nM
Measurement: 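Six signature mRNAs by branched-DNA multiplex assay, scaled to two housekeeping genes and non-targeting median, log2; matched to mean KSR1 knockdown profile by Pearson correlation and euclidean distance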
Scale: mean correlation with KSR1 profile: higher = expression change more like KSR1 knockdown; mean distance from KSR1 profile: higher = expression change less like KSR1 knockdown
This is one part, drawn at random, of about 14,000 reagents. 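Higher correlation or smaller distance means closer resemblance to KSR1 loss; control wells, including KSR1 knockdowns, recur on many plates.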 Further read-outs or replicates are left out here. No sequences are given here. Not given: the time to read-out.

Target gene,PubChem SID,mean correlation with KSR1 profile,mean distance from KSR1 profile
GABARAPL1,SID364003600,-0.0818,2.21
DYNLRB1,SID363998640,-0.063,1.91
CFTR,SID363991815,0.271,1.43
PPP1R9A,SID364005477,0.468,1.59
FAXC,SID364004024,0.637,3.79
AKTIP,SID364002461,0.0322,1.52
HYOU1,SID363997201,0.205,2.16
ATF7,SID363997620,0.26,2.34
CALU,SID363992504,-0.707,4.06
SPRR1B,SID363994266,-0.427,3.29
PITPNM1,SID363995857,-0.216,2.67
UBE3B,SID364004514,-0.0421,1.67
SPON1,SID363996949,-0.365,2.68
CPSF3,SID363999949,-0.265,3.78
KLF11,SID363994677,0.034,1.54
RXYLT1,SID363998691,0.0649,2.34
FAM220A,SID364004130,0.45,1.73
SEC61A1,SID363998446,-0.0269,2.37
SHOX2,SID363994179,0.0369,2.08
RBM48,SID364003777,0.849,0.765
SRCAP,SID363997448,-0.637,3.41
KLRC2,SID363993459,0.359,1.12
PPARA,SID363995975,0.349,1.15
PPARA,SID364004110,0.467,3.23
STK35,SID364004505,0.686,1.67
RPL5,SID363992253,-0.231,2.67
GSDMC,SID364003602,-0.125,2
SRD5A1,SID363992344,0.38,2.34
PRSS8,SID363993931,-0.0577,2.12
SND1,SID363998812,-0.0235,1.65
RAB32,SID363997600,0.505,1.88
XYLB,SID363996044,0.237,1.93
CYP2E1,SID363992064,0.0331,1.27
PTGDS,SID363992238,0.47,2.21
MMRN2,SID364003031,0.702,1
SPINT2,SID364002010,-0.162,1.71
ACTA1,SID363992397,-0.492,2.7
SYMPK,SID363995772,0.725,1.31
KCNK4,SID364000235,-0.323,2.31
USP7,SID363994569,-0.227,2.77
MPPE1,SID364002634,-0.339,1.83
GTPBP6,SID363998154,-0.484,1.26
ZSCAN31,SID364003479,-0.308,1.22
MZF1,SID363994526,-0.174,2.44
SLC16A2,SID363997314,-0.345,1.91
SCGB2A1,SID363993585,-0.284,1.98
SLC4A1,SID363991674,-0.0755,1.7
IL4,SID363991907,-0.268,1.49
C6orf62,SID364003513,0.146,2.19
TRPC3,SID363994423,-0.72,2

5 successive entries from above:
Target gene,PubChem SID,mean correlation with KSR1 profile,mean distance from KSR1 profile
SPON1,SID363996949,-0.365,2.68
CPSF3,SID363999949,-0.265,3.78
KLF11,SID363994677,0.034,1.54
RXYLT1,SID363998691,0.0649,2.34
FAM220A,SID364004130,0.45,1.73
